Results: US20160311788A1, “Antifouling Compounds And Use Thereof” (National University of Singapore, priority 2008, published 2016)
Marks after values point to notes of the source that are not given here.

Test system: cyprids of Balanus amphitrite
Assay: barnacle settlement assay
Type: in vivo
Conditions: Therapeutic Ratio, LD50/ED50
Method: Pure compounds were suspended in DMSO and sonicated to obtain a stock solution of 50 mg ml^−1 in DMSO. This stock solution is stored at −20° C. in 4 ml amber screw cap vials. For the bioassays, a small volume of stock solution was added to 1 μm filtered seawater in a glass scintillation vial. This suspension was then sonicated around 10 minutes. Serial dilutions were generated to the required range of concentrations. Serial dilution of the equivalent amounts of DMSO in seawater was used as the control.
The barnacle bioassay method used follows from the method first introduced by Rittschof et al. (1992), and subsequently by other authors (Willemsen et al., 1998). This method is now standard practice for many antifouling screening of novel compounds.
Barnacle settlement assays were based on methodology from Rittschof et al. (1992). Barnacle larvae from field-collected adults were reared on an algal mixture of 1:1 v/v of Tetraselmis suecica and Chaetoceros muelleri at 25° C., at approximately 5×10^5 cells per ml density. On this regime, larvae metamorphose to cyprids in 5 days. These cyprids were aged at 4° C. for 2-3 days, and 45-70% settlement after 24 hours (Willemsen et al., 1998).
Settlement tests were conducted in 7 ml neutral glass vials (Samco® T1 03N1) 34 mm by 23 mm diameter, with 20-40 cyprids per well. Test solutions were made up to twice the required final concentration. 0.5 ml of test solution was added into each well, and cyprids were transferred into each well in 0.5 ml of seawater. Assays were done in triplicate. As before, there were two sets of controls, a blank control consisting 3 tubes of seawater only, and DMSO control consisting of the equivalent dilution series with DMSO without compound. After 24 hours, larvae that had attached and metamorphosed were enumerated and the result expressed as percentage settlement. Larvae not attached were scored as not settled. The assays were repeated and the concentration that caused 50% settlement inhibition (ED50) was determined by pro bit analysis using a basic computer program (Lieberman, 1983), or by estimation from graphed data.

| Compound | TR |
| --- | --- |
| CN1CCC(O)(c2ccccc2)CC1 [Compound 4.4] | 2.07 |
| O=C(Cc1ccccc1)N1CCC(O)(c2ccccc2)CC1 [Compound 10.4] | ~3.33* |
| CCCCC(CCCC)C(=O)N(C)C [Compound 12.3] | ~18.12* |
| O=C(C(c1ccccc1)c1ccccc1)N1CCCCC1 [Compound 4.1, 2,2-Diphenyl-1-(piperidin-1-yl)ethanone] | ~21.27* |
| O=C(C(c1ccccc1)c1ccccc1)N1CCC(CCO)CC1 [Compound 9.2] | ~0.98* |
| CN1CCN(C(=O)C(c2ccccc2)c2ccccc2)CC1 [Compound 4.2, 1-(4-Methylpiperazin-1-yl)-2,2-diphenylethanone] | ~0.29* |
| CN(C)C(=O)C(CCN1CCC(O)(c2ccc(Cl)cc2)CC1)(c1ccccc1)c1ccccc1 [LOP, loperamide, reference compound] | 4.22 |
| O=C(C(c1ccccc1)c1ccccc1)N1CCC(O)(c2ccccc2)CC1 [Compound 4.5] | ~7.72* |
| OC1(c2ccc(Cl)cc2)CCNCC1 [Compound 3.4] | 0.19 |
| CCCCCCC(CCCC)C(=O)N1CCCCC1 (stereo not shown) [Compound 12.8] | greater than one |
